The record followed here is patent publication US4883797A, “Derivatives of piperazine, method for making the same” (Ferrer Internacional, S.A., priority 1982, dated 1989).

What all share (format): in vivo
One experiment relates to heart rate. The experiment in a line: Effect on heart rate (bradycardia), anesthetized rats, endovenous. The note with it: Rattus norvegicus, iv.
For another experiment, the system named is mice. The experiment can be described thus: Antiarrhythmic activity, method of Ferrini et al, endovenous administration to mice. The note with it: Mus musculus, iv, read-out: Antiarrythmic activity ED50.
For another experiment, the system named is mean arterial pressure. The experiment can be described thus: Decrease in mean arterial pressure (hypotension), anesthetized rats, endovenous. The note with it: Rattus norvegicus, iv.

By ED50 is commonly meant the midpoint of the dose-response relation.

Take `C(=C\c1ccccc1)/CN1CCN(C(c2ccccc2)c2ccccc2)CC1` [Cinnarizine 2HCI, reference compound]: the results for the ED50 in the experiment on heart rate, with mice and with mean arterial pressure were 2.8 mg/kg, 23 mg/kg and 1 mg/kg, respectively.
